# Assay results

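Luminescence from an EWS-FLI1 target-promoter (NR0B1) reporter, set against a CMV-promoter reporter, two days after silencing single genes in TC32 Ewing sarcoma cells.
Each siRNA was applied at 20 nM.
A z-score of the log NR0B1-over-CMV signal, less the median of siRNAs with the same seed; more negative means a stronger specific loss of the NR0B1 reporter.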

This is part of the screen; most of the strongest results are not listed here.
Sequences are the guide (antisense) strand, without overhang.

UGACUUACUACCACGCUGC against PLEKHG1 read seed-corrected z-score -0.4459.
UUCCUUCUAGGUCAUAAAG against DEFA6 read seed-corrected z-score -0.0475.
UUUGUUUUAUCUCAACUAG against TPD52L1 read seed-corrected z-score 2.04.
AAAUGUCCAAUACAUCAGG against HPSE read seed-corrected z-score -0.002353.
UUUGUAAUCAUGACUGAUU against TMEM14C read seed-corrected z-score 0.7325.
AGUGCUGUAAAGCUGUUCU against GPSM3 read seed-corrected z-score 2.245.
UAUAGUACUGGUGACGUGG against UBA1 read seed-corrected z-score -0.3839.
UUACGUCGAACAGCUCGUC against COPE read seed-corrected z-score 0.8399.
UGCACAGUAAGAGAAAAGC against ZNF558 read seed-corrected z-score -0.1154.
UUAUCACUGAGUUGUCUGC against PUM3 read seed-corrected z-score -0.03097.
UCUUGUCAUACCACCAAUG against EPPIN read seed-corrected z-score 0.959.
UUAUAUCAGGGAAUAGUCC against C4orf51 read seed-corrected z-score 0.4391.
UUCCGAGCAAGCUCCAUUG against UBQLN4 read seed-corrected z-score 0.006007.
UGAACUACUAUCAACCUGG against MEIKIN read seed-corrected z-score 0.239.
AAAGGUUUUACGAAAUAGC against TMEM167B read seed-corrected z-score 0.0831.
UUGCAGACUAGUGUCACUG against SIGLEC1 read seed-corrected z-score -0.2949.
AGAUGUAAAGGAACCACAG against TMEM121 read seed-corrected z-score -0.1896.
UUCAUCUGUGCUGUAUUCC against FAM177A1P1 read seed-corrected z-score -0.02165.
AUGGGUUACAUUUCCAGAG against SLC1A4 read seed-corrected z-score 0.6664.
UCUUCUAAGAUGCACUUCC against MREG read seed-corrected z-score -0.449.
UUUGGUUGAUAGUAUCACC against YAP1 read seed-corrected z-score 0.2132.
UAAGAAUCAGUUCUCCGCC against TNFSF4 read seed-corrected z-score 1.255.
AUACUCAUAGUCCGCAUCU against TMEM198 read seed-corrected z-score -1.754.
AGACUUGUAAGGGUGCUCG against RYR1 read seed-corrected z-score -1.784.
UCUUCUAUCAGGUUCCAGC against LRRC16B read seed-corrected z-score -0.4494.
UGAAAACAAACCGUCCUGC against PTGES2 read seed-corrected z-score -0.974.
AUAGAUUCCAAAGCGUAGC against CPNE1 read seed-corrected z-score 0.07468.
UUCUUGUCAGUCGAGAUGG against TNNI3K read seed-corrected z-score -0.07382.
UACCUAUCGUUAUUCACUC against LOC728485 read seed-corrected z-score 0.02917.
AAUUCGGUAAACUCUAUCC against ERCC6L read seed-corrected z-score -0.2273.
UUCGAGUAAAAUGAAGGUG against TAF5 read seed-corrected z-score -0.07478.
UAGGAUCUACCCAAAAAGC against LOC340089 read seed-corrected z-score -0.3892.
UCUCUUAGAUCGCAUAUGC against C10orf90 read seed-corrected z-score 0.9586.
UAGUCGUCCCGAGCGAUCU against C2orf68 read seed-corrected z-score 0.5754.
UUUUUGAUACUCUUCCUUC against CA12 read seed-corrected z-score 0.2805.
UUUGUUGUAUAAACGGGUC against MX2 read seed-corrected z-score -0.2648.
UUUCCGCUACUCUCUAUUC against CSMD1 read seed-corrected z-score 0.2234.
UUAUCUCCAGCCGAUACCG against KIAA0319 read seed-corrected z-score 0.8084.
UUGCAGUAAACACUAGUUC against LOC389405 read seed-corrected z-score -0.08772.
UUUGCAUUCUCCUCGGAGC against SLC22A18AS read seed-corrected z-score -1.531.
ACACGUACCACACCCAAAG against SLC17A9 read seed-corrected z-score -0.5442.
UUUGUAGCGUCGGUUCUGG against NKX2-6 read seed-corrected z-score -0.9198.
UUCACGUUGAUCUCCAUCG against UBE2E2 read seed-corrected z-score -0.01274.

For reference, 2 entries once more:

* UAAGAAUCAGUUCUCCGCC against TNFSF4 : seed-corrected z-score 1.255
* UUAUCACUGAGUUGUCUGC against PUM3 : seed-corrected z-score -0.03097

Data taken from PubChem BioAssay AID1159506, deposited by NCATS (2015).